{"source": "PubChem BioAssay AID1259425 – University of Nebraska Medical Center | 2018", "aim": "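Seek colon cancer weak points whose silencing resembles KSR1 loss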 (primary screen)", "cells": "HCT116 human colon cancer cells", "reagents": "siRNA pool against human genes, 50 nM siRNA", "measurement": "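After 50 nM siRNA pool, branched-DNA assay measures six marker transcripts per well, minus blank, normalised to the geometric mean of two housekeeping transcripts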", "reading the numbers": "BNIP3L mRNA: higher = more BNIP3L transcript after knockdown", "note": "This is one part, drawn at random, of about 14,000 reagents. Further read-outs or replicates are left out here. Not given: the time to read-out."}
{"Gene":"TBCC","BNIP3L mRNA, set 1":0.148}
{"Gene":"CENPE","BNIP3L mRNA, set 1":0.0608}
{"Gene":"KIF5C","BNIP3L mRNA, set 1":0.0653}
{"Gene":"RFC2","BNIP3L mRNA, set 1":0.123}
{"Gene":"SAFB","BNIP3L mRNA, set 1":0.0842}
{"Gene":"PLPPR2","BNIP3L mRNA, set 1":0.0889}
{"Gene":"BEX1","BNIP3L mRNA, set 1":0.107}
{"Gene":"LRRC31","BNIP3L mRNA, set 1":0.33}
{"Gene":"USH2A","BNIP3L mRNA, set 1":0.165}
{"Gene":"ZNF770","BNIP3L mRNA, set 1":0.198}
{"Gene":"HES4","BNIP3L mRNA, set 1":0.0535}
{"Gene":"HYOU1","BNIP3L mRNA, set 1":0.112}
{"Gene":"CPEB1","BNIP3L mRNA, set 1":0.209}
{"Gene":"RANBP10","BNIP3L mRNA, set 1":0.0415}
{"Gene":"ENOX2","BNIP3L mRNA, set 1":0.151}
{"Gene":"FAM222A","BNIP3L mRNA, set 1":0.174}
{"Gene":"NINL","BNIP3L mRNA, set 1":0.0857}
{"Gene":"ZDHHC16","BNIP3L mRNA, set 1":0.23}
{"Gene":"PPP4R2","BNIP3L mRNA, set 1":0.106}
{"Gene":"C8B","BNIP3L mRNA, set 1":0.18}
{"Gene":"C1orf159","BNIP3L mRNA, set 1":0.119}
{"Gene":"SEC31B","BNIP3L mRNA, set 1":0.0606}
{"Gene":"KCNH7","BNIP3L mRNA, set 1":0.0879}
{"Gene":"OSGIN1","BNIP3L mRNA, set 1":0.0894}
{"Gene":"COA8","BNIP3L mRNA, set 1":0.202}
{"Gene":"MRPS16","BNIP3L mRNA, set 1":1.9}
{"Gene":"THPO","BNIP3L mRNA, set 1":0.0656}
{"Gene":"RPS2","BNIP3L mRNA, set 1":0.106}

Part of the list above in another layout.
{"Gene": "C1orf159", "BNIP3L mRNA, set 1": 0.119}
{"Gene": "SEC31B", "BNIP3L mRNA, set 1": 0.0606}
{"Gene": "KCNH7", "BNIP3L mRNA, set 1": 0.0879}
{"Gene": "OSGIN1", "BNIP3L mRNA, set 1": 0.0894}
